PubChem BioAssay AID504648 (National Center for Advancing Translational Sciences (NCATS), 2011)
The whole screen tested about 390,000 compounds, of which about 610 (0.16%) were called active. This list was built around the results that the source calls inconclusive (neither active nor inactive); the mix of calls is not that of the screen. Calls follow the shape of the dose curve; as a rule, active = well fitted inhibition curve with a large enough effect; inconclusive = small, poorly fitted or top-dose-only effect, or effect the other way, or another doubt; inactive = no such curve, though single readings can be large or run the other way. Where the call is inconclusive, the potency comes from a doubtful curve fit.

experiment: Nrf2 qHTS screen for inhibitors: counterscreen for cytotoxicity; details: A549 ARE-Fluc cells, CellTiter-Fluor viability, 18-24 h; activity change, negative = cytotoxicity: at 46 µM (top of the series)
Summary of the method: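 Cytotoxicity counterscreen: CellTiter-Fluor fluorescence was measured in A549 ARE_Fluc cells after 18-24 h of compound exposure in a concentration series. The subsequent BugLite luminescent read reports ARE-luciferase activity.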
% is scaled to controls: 0 for no effect and ±100 for the full control effect; potency is read from the fitted curve at half-maximal effect.

Structure (SMILES)	Potency	activity change, negative = cytotoxicity
CCN(CC)c1ccc(C2NC(=O)c3ccccc3N2)cc1 (stereo not given)	inconclusive: 13 µM [falling, partial curve, poor fit]	–
CCc1cc2ccc(C)cc2nc1SCC(=O)Nc1c[nH]c(=O)[nH]c1=O	inconclusive: 13 µM [activator, partial curve]	–
CC(C)C(=O)N1CCN(c2ccccc2NC(=O)COc2ccc(C3CCCCC3)cc2)CC1	inconclusive: 29.1 µM [falling, single point]	–
Cc1ccccc1OCC(=O)NCC(C)(C)N1CCOCC1	–	inactive: -3.2%
COc1cccc(NC(=O)CN(C)C(=O)c2cc(-c3ccc(F)cc3)nc3ccccc23)c1	inconclusive: 32.6 µM [falling, partial curve, poor fit]	–
S=C(NC1CCCC1)N1CCN(C/C=C/c2ccccc2)CC1	inconclusive: 25.9 µM [falling, partial curve, poor fit]	–
CCCCN(Cc1nc2ccccc2c(=O)[nH]1)C(=O)CN1C(=O)NC2(CCCCC2)C1=O	–	inactive: -1.78%
CC(C)Oc1ccc(C(CC(=O)NCc2ccco2)c2ccccc2)cc1 (stereo not given)	inconclusive: 16.4 µM [falling, single point]	–
CCOC(=O)c1ccc(NCc2ccc(N(C)C)cc2)cc1	inconclusive: 20.6 µM [falling, partial curve, poor fit]	–
Cc1ccc(-n2nc3c(N4CCC(C(=O)NC5CCCCC5)CC4)nnc(C)c3c2C)cc1	–	inactive: -4.78%
Cc1ccc(S(=O)(=O)N(C)c2ccc(OCC(=O)OCc3nnc(-c4ccccc4)o3)cc2)cc1	inconclusive: 4.11 µM [activator, full curve]	–
COCC(=O)Nc1nc2n(n1)C(c1ccccc1)CC(c1ccc(OC)cc1)N2 (stereo not given)	inconclusive: 29.1 µM [activator, single point]	–
CCN(CCO)c1nc(SC)nc2c1sc1nc(-c3ccco3)c3c(c12)CCC3	inconclusive: 20.6 µM [activator, partial curve, poor fit]	–
O=C(CSc1nnc(-c2c[nH]c3ccccc23)o1)N(Cc1ccccc1)c1ccc(F)cc1	inconclusive: 29.1 µM [falling, single point]	–
COc1cccc(/C=C2\SC(=S)N(CCC(=O)NCCc3ccc(O)cc3)C2=O)c1	inconclusive: 29.1 µM [falling, single point]	–
CCn1c(O)c(/C=N/n2cnnc2)sc1=S	inconclusive: 18.4 µM [falling, single point]	–
COC(=O)C1=C(C(=O)OC)[C@]2([C@H]3CCCCN[C@@H](Cc4ccccc4)C(=O)N3Cc3ccccc3)C=C[C@H]1O2	–	inactive: -5.01%
NS(=O)(=O)c1ccc(N=Nc2c(-c3ccccc3)[nH]n(-c3nc(-c4ccccc4)cs3)c2=O)cc1	inconclusive: 11.6 µM [falling, partial curve, poor fit]	–
COc1cccc(OC(=O)CSc2nnc(-c3cccs3)o2)c1	–	inactive: 11.9%
Cc1cc(S(=O)(=O)Nc2ccc(F)cc2)c(C)s1	inconclusive: 32.6 µM [falling, single point]	–

Structure (SMILES)	Potency	activity change, negative = cytotoxicity
O=C(Nc1sc2c(c1C(=O)O)CCCC2)c1cccs1	inconclusive: 7.31 µM [falling, partial curve]	–
CCN(CC)S(=O)(=O)c1cc(NC(=O)C2CCN(c3ncnc4sc(C)c(C)c34)CC2)ccc1Cl	inconclusive: 13 µM [falling, partial curve, poor fit]	–
COc1ccc(N=C2NC(=O)S/C2=C\c2ccc(N(C)C)cc2)cc1	inconclusive: 10.3 µM [falling, partial curve, poor fit]	–
CSc1ccc(/C=C/c2nc3ccccc3n2S(=O)(=O)c2ccc(Br)cc2)cc1	–	inactive: -23.4%
COc1cc(C)c(C(=O)Oc2cc(C)c(C(=O)O)c(O)c2C)c(OC)c1C	inconclusive: 32.6 µM [falling, partial curve, poor fit]	–
CC1(C)CC(=O)C=C(NC2=CC3OC(c4ccccc4)OCC3OC2=O)C1 (stereo not given)	inconclusive: 23.1 µM [falling, single point]	–
CC(OC(=O)c1ccc(S(=O)(=O)NCc2ccco2)cc1)C(=O)Nc1ccc(Cl)cn1 (stereo not given)	–	inactive: -7.37%
COc1cc2c(c(OC)c1OC)-c1ccc(OC)c(=O)cc1C(NC(C)=O)CC2 (stereo not given)	inconclusive: 0.13 µM [falling, partial curve, poor fit]	–
COc1cccc(NC(=O)c2cc(Cl)nnc2Cl)c1	inconclusive: 29.1 µM [falling, single point]	–
COc1ccc2[nH]c3c(c2c1)CCN1C(=O)C(CC(=O)NCC24CC5CC(CC(C5)C2)C4)C[C@H](C(=O)N(C(C)C)C(C)C)[C@@]31C (stereo not given in full)	–	inactive: -10.6%
Cc1ccc(NC(=O)CSc2nc3ccc(Nc4nc(N5CCOCC5)nc(N5CCOCC5)n4)cc3s2)cc1	inconclusive: 18.4 µM [falling, single point]	–
Cc1cccn2c(=O)c3cc(C#N)c(=O)n(-c4nnc(SCc5ccc(F)cc5)s4)c3nc12	–	inactive: 5.99%
COc1ccc(OC)c(C(C)NC(=S)NC2CCCCC2)c1 (stereo not given)	–	inactive: 0.0928%
COCCNC(=O)c1cc2c(=O)n3cccc(C)c3nc2n(Cc2ccncc2)c1=N	inconclusive: 7.31 µM [activator, single point]	–
COc1cc(/C=C2\SC(=S)N(C(Cc3ccccc3)C(=O)O)C2=O)ccc1O (stereo not given)	inconclusive: 23.1 µM [falling, partial curve, poor fit]	–
CCOc1ccc(C(=O)Nc2cccc(NC(=O)c3ccc(Cl)cc3Cl)c2)cc1	–	inactive: 0.958%
COc1ccc(CN(C)C(=O)c2cccc(S(=O)(=O)N3CCCc4ccccc43)c2)c(OC)c1OC	inconclusive: 23.1 µM [falling, partial curve, poor fit]	–
N#C/C(=N\Nc1cc(Cl)cc(Cl)c1)c1nnc2n1CCCCC2	inconclusive: 16.4 µM [falling, single point]	–
O=C(Nc1ccc(Cl)cc1)N1CCC(c2nc(-c3cccs3)no2)CC1	inconclusive: 4.61 µM [falling, single point]	–
CCOc1ccc2nc(NCCCNS(=O)(=O)c3ccccc3)c(C#N)cc2c1	inconclusive: 18.4 µM [activator, single point]	–

Full records as entered above:
COc1cc(/C=C2\SC(=S)N(C(Cc3ccccc3)C(=O)O)C2=O)ccc1O (stereo not given) is entered as Potency: inconclusive: 23.1 µM [falling, partial curve, poor fit]
COc1ccc2[nH]c3c(c2c1)CCN1C(=O)C(CC(=O)NCC24CC5CC(CC(C5)C2)C4)C[C@H](C(=O)N(C(C)C)C(C)C)[C@@]31C (stereo not given in full) is entered as activity change, negative = cytotoxicity: inactive: -10.6%
